Measured values taken from article PMC12713065.
No constants are given. Whether binding was seen depends on the method and setting. Binding seen in cells or lysates may run through a third protein. These calls come from enrichment with a bait or labelling near it, and not all partners need be listed.

The chains behind the UniProt entries cited, without tags or fusion partners. Where a name states a change or a piece, a line headed by the entry shows the natural chain unless it says otherwise.
UniProt P53396: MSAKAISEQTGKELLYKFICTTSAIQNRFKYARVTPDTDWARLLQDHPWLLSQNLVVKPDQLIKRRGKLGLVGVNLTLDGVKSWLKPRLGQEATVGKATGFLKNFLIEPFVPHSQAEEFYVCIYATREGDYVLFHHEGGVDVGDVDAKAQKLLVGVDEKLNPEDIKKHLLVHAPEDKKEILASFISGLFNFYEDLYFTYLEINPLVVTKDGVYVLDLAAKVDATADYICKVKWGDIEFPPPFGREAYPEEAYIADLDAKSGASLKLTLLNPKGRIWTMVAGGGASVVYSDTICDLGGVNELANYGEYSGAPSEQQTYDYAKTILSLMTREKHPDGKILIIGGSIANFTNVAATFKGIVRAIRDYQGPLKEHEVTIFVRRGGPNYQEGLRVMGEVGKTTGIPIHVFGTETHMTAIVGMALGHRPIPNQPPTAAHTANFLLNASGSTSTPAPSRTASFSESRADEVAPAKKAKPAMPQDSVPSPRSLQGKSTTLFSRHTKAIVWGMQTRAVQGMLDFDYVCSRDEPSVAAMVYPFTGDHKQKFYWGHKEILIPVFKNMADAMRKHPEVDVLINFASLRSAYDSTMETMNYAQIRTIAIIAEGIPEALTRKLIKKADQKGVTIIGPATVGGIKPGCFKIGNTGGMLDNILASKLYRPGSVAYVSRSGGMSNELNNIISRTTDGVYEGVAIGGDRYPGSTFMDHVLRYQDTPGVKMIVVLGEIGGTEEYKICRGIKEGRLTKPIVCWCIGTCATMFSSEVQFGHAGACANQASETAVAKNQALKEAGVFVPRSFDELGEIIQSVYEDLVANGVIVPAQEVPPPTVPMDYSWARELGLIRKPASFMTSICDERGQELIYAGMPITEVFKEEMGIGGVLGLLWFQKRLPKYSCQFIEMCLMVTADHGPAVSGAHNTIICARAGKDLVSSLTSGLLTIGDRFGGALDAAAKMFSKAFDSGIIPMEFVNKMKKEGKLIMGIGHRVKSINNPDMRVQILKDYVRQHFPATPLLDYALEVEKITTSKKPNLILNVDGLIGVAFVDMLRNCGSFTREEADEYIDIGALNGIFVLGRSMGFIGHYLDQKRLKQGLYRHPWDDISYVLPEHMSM

Target: ACLY-K978R stably expressed in HCT8/shACLY cells (UniProt P53396)
Assay: affinity purification with mass spectrometry; anti-Flag magnetic beads IP from cells expressing Flag-ACLY or Flag-ACLY-K978R (methods: HCT8/shACLY stable cells; legend: HEK293T transfected), SDS-PAGE, LC-MS/MS

B1: endogenous RNA-binding protein 15 (RBM15) (protein, UniProt Q96T37 1-977)
chain: MRTAGRDPVPRRSPRWRRAVPLCETSAGRRVTQLRGDDLRRPATMKGKERSPVKAKRSRGGEDSTSRGERSKKLGGSGGSNGSSSGKTDSGGGSRRSLHLDKSSSRGGSREYDTGGGSSSSRLHSYSSPSTKNSSGGGESRSSSRGGGGESRSSGAASSAPGGGDGAEYKTLKISELGSQLSDEAVEDGLFHEFKRFGDVSVKISHLSGSGSGDERVAFVNFRRPEDARAAKHARGRLVLYDRPLKIEAVYVSRRRSRSPLDKDTYPPSASVVGASVGGHRHPPGGGGGQRSLSPGGAALGYRDYRLQQLALGRLPPPPPPPLPRDLERERDYPFYERVRPAYSLEPRVGAGAGAAPFREVDEISPEDDQRANRTLFLGNLDITVTESDLRRAFDRFGVITEVDIKRPSRGQTSTYGFLKFENLDMSHRAKLAMSGKIIIRNPIKIGYGKATPTTRLWVGGLGPWVPLAALAREFDRFGTIRTIDYRKGDSWAYIQYESLDAAHAAWTHMRGFPLGGPDRRLRVDFADTEHRYQQQYLQPLPLTHYELVTDAFGHRAPDPLRGARDRTPPLLYRDRDRDLYPDSDWVPPPPPVRERSTRTAATSVPAYEPLDSLDRRRDGWSLDRDRGDRDLPSSRDQPRKRRLPEESGGRHLDRSPESDRPRKRHCAPSPDRSPELSSSRDRYNSDNDRSSRLLLERPSPIRDRRGSLEKSQGDKRDRKNSASAERDRKHRTTAPTEGKSPLKKEDRSDGSAPSTSTASSKLKSPSQKQDGGTAPVASASPKLCLAWQGMLLLKNSNFPSNMHLLQGDLQVASSLLVEGSTGGKVAQLKITQRLRLDQPKLDEVTRRIKVAGPNGYAILLAVPGSSDSRSSSSSAASDTATSTQRPLRNLVSYLKQKQAAGVISLPVGGNKDKENTGVLHAFPPCEFSQQFLDSPAKALAKSEEDYLVMIIVRGFGFQIGVRYENKKRENLALTLL
binding: binds
